Data from article PMC9023482.
No constants are given. Whether binding was seen depends on the method and setting. Binding seen in cells or lysates may run through a third protein.

Protein sequences, listed by entry. Tags and fused reporters are not part of them. Residues count along the entry.
UniProt P08581, residues 25-1390: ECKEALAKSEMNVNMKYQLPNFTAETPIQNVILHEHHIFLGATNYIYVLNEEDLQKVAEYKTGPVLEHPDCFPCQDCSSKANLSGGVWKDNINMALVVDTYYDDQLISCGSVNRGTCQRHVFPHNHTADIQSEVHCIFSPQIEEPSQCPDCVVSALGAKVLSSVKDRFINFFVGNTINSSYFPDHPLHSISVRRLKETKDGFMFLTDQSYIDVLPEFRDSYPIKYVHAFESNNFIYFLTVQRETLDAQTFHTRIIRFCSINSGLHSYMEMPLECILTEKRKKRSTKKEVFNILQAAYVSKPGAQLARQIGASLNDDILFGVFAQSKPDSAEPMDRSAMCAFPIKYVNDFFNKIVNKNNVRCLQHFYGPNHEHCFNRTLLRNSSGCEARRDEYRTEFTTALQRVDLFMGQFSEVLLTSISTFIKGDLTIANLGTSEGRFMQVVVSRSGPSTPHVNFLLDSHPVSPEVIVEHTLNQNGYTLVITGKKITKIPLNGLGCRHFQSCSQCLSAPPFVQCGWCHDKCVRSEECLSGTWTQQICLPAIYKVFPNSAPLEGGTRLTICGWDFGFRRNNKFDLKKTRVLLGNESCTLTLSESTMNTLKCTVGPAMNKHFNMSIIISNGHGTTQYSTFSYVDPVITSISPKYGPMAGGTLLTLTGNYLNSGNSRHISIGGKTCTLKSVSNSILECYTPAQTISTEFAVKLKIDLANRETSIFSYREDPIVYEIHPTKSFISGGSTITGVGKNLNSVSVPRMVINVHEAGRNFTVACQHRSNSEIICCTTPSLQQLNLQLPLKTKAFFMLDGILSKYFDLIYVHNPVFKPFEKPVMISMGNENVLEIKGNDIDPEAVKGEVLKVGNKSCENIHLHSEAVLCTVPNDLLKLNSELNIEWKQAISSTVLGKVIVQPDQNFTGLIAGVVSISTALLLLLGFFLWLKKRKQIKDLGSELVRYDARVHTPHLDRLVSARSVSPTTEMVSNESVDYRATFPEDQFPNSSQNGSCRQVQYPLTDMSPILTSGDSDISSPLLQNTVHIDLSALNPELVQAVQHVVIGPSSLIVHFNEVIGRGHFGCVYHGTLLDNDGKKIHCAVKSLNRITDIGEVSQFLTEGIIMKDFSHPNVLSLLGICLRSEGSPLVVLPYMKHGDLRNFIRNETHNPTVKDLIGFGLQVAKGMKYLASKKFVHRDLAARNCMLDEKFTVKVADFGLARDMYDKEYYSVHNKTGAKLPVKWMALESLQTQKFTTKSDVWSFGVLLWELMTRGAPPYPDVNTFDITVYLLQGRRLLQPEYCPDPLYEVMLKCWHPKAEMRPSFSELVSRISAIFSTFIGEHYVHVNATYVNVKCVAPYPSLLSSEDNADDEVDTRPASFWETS

Target: c-Met (Mesenchymal-epithelial transition factor) (human (endogenous in human RCC cell lines)) (UniProt P08581)
Assay: co-IP; whole-cell lysate (RIPA buffer with protease and phosphatase inhibitors) incubated with the detection antibody overnight at 4 °C, then 50 µl protein A/G beads for 6 h; cells and precipitating antibody of Figure S2 not told

binding: no binding
B1: ORP5 (Oxysterol-binding protein-related protein 5) (protein, UniProt Q9H0X9 1-879)
chain: MKEEAFLRRRFSLCPPSSTPQKVDPRKLTRNLLLSGDNELYPLSPGKDMEPNGPSLPRDEGPPTPSSATKVPPAEYRLCNGSDKECVSPTARVTKKETLKAQKENYRQEKKRATRQLLSALTDPSVVIMADSLKIRGTLKSWTKLWCVLKPGVLLIYKTPKVGQWVGTVLLHCCELIERPSKKDGFCFKLFHPLDQSVWAVKGPKGESVGSITQPLPSSYLIFRAASESDGRCWLDALELALRCSSLLRLGTCKPGRDGEPGTSPDASPSSLCGLPASATVHPDQDLFPLNGSSLENDAFSDKSERENPEESDTETQDHSRKTESGSDQSETPGAPVRRGTTYVEQVQEELGELGEASQVETVSEENKSLMWTLLKQLRPGMDLSRVVLPTFVLEPRSFLNKLSDYYYHADLLSRAAVEEDAYSRMKLVLRWYLSGFYKKPKGIKKPYNPILGETFRCCWFHPQTDSRTFYIAEQVSHHPPVSAFHVSNRKDGFCISGSITAKSRFYGNSLSALLDGKATLTFLNRAEDYTLTMPYAHCKGILYGTMTLELGGKVTIECAKNNFQAQLEFKLKPFFGGSTSINQISGKITSGEEVLASLSGHWDRDVFIKEEGSGSSALFWTPSGEVRRQRLRQHTVPLEEQTELESERLWQHVTRAISKGDQHRATQEKFALEEAQRQRARERQESLMPWKPQLFHLDPITQEWHYRYEDHSPWDPLKDIAQFEQDGILRTLQQEAVARQTTFLGSPGPRHERSGPDQRLRKASDQPSGHSQATESSGSTPESCPELSDEEQDGDFVPGGESPCPRCRKEARRLQALHEAILSIREAQQELHRHLSAMLSSTARAAQAPTPGLLQSPRSWFLLCVFLACQLFINHILK
